In PMC9627217:
These are yes or no findings as the source states them, for the method shown. In cells and extracts the contact can be indirect. Some entries that bind do so weakly or less than the wild type.

Protein sequences, listed by entry. Tags and fused reporters are not part of them. Residues count along the entry.
UniProt P04150: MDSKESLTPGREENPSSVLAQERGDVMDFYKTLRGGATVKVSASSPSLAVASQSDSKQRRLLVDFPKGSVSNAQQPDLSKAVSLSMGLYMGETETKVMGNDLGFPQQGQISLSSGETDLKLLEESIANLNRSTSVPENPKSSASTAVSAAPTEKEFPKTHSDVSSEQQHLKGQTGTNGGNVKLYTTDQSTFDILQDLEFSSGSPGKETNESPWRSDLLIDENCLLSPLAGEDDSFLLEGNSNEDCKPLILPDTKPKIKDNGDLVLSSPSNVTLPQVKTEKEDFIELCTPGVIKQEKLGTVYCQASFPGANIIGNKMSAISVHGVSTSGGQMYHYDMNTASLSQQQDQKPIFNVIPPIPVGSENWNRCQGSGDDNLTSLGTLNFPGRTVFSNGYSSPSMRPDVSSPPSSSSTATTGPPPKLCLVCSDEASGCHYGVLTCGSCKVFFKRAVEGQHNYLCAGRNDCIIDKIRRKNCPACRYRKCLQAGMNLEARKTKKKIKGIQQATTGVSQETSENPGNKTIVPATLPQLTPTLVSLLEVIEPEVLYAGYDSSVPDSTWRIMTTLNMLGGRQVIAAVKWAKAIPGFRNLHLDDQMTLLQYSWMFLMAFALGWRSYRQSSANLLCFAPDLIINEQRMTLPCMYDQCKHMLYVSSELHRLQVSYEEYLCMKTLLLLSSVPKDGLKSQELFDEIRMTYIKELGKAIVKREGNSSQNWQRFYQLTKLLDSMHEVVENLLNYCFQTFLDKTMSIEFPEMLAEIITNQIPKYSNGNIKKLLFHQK
UniProt P08069, residues 31-1367: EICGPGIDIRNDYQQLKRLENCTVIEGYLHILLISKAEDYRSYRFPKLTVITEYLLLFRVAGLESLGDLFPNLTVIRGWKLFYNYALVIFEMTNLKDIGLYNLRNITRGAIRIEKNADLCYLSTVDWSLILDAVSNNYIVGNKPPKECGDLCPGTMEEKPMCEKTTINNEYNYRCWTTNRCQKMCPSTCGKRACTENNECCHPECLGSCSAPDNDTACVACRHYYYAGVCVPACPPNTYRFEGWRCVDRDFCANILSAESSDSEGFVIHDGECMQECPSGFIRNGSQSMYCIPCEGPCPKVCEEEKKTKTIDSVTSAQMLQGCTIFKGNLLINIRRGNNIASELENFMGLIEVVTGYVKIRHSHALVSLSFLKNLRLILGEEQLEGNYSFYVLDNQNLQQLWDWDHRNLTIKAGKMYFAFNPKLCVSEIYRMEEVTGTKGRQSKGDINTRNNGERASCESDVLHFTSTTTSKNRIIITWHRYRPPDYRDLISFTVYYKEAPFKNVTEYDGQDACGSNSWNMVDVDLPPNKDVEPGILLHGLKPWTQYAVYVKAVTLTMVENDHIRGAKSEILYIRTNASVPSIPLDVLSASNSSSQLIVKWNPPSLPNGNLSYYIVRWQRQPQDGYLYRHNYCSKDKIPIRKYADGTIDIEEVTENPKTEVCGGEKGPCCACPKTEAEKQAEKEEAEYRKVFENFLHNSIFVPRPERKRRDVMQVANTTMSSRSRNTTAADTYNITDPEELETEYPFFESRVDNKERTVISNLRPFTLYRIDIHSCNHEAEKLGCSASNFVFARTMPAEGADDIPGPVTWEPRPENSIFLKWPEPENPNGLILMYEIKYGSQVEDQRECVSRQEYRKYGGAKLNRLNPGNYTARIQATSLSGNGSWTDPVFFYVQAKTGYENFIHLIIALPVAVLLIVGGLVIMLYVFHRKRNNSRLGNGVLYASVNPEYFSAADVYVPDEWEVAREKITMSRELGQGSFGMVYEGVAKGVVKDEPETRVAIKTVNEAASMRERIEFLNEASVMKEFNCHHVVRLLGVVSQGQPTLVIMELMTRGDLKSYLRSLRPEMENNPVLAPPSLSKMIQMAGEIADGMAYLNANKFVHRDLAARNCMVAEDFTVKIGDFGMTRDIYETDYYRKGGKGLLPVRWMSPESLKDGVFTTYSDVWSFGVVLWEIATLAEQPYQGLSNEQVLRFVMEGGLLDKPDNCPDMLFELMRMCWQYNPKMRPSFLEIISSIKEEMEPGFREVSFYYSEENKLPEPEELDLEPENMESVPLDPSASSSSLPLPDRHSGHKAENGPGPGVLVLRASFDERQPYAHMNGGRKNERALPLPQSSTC

Biological target: glucocorticoid receptor (human (endogenous in KGN)) (UniProt P04150)
Test: co-IP; KGN cells treated with 0.1 uM or 1 uM CORT for 48 or 72 h, lysed in RIPA buffer; GR antibody (1 ug) overnight at 4 C, protein A/G magnetic beads, five washes; Western blot for IGF1R

binding: binds
Substance: insulin-like growth factor 1 receptor (from UniProt P08069 31-1367)
